Data as given in publication PMC10166522.

The chains behind the UniProt entries cited, without tags or fusion partners. Where a name states a change or a piece, a line headed by the entry shows the natural chain unless it says otherwise.
UniProt P34298: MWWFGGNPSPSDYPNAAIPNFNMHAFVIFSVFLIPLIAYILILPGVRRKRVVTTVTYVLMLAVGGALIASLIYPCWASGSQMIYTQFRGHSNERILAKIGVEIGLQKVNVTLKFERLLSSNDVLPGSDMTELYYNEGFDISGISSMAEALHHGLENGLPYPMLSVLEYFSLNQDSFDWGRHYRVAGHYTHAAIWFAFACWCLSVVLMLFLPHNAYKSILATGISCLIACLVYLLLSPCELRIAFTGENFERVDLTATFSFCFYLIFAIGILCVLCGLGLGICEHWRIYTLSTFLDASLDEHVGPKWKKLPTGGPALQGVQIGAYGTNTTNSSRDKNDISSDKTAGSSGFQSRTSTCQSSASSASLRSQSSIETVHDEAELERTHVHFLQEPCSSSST
UniProt Q8WQ99: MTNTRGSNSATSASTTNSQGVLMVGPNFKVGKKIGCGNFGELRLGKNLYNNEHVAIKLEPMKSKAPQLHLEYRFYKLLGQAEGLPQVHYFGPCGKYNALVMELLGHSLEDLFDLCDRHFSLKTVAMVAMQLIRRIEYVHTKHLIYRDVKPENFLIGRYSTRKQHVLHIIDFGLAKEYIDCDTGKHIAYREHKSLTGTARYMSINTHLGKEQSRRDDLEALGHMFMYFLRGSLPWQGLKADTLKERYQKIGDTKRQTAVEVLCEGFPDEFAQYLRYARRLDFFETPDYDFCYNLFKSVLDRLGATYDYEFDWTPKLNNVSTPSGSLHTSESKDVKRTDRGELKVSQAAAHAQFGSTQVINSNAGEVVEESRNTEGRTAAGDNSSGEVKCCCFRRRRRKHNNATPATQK

Biological target: His::TF::DOXA-1 fusion protein (C. elegans) (UniProt P34298)
Experiment: pull-down; His::TF fusion protein from BL21 held on His-tag resin, incubated at 4°C overnight with the lysate supernatant of transfected HEK293T cells, 3 washes in TBST; Western blot; only the target purified

binding: binds
Substance: FLAG::CSNK-1 fusion protein (from UniProt Q8WQ99 1-407) (enzyme)

No constants are given. Whether binding was seen depends on the method and setting. Binding seen in cells or lysates may run through a third protein. Binding calls can cover weak binding; strength is not graded here.
